# Measured values: PubChem BioAssay AID1347426 (Functional Genomics Laboratory (NCATS/FGL), 2020)
# The campaign covered roughly 31,000 sequences. About 1,400 (4.5%) were called active.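 How the source made its calls: active means median seed-adjusted z-score above 1 or below -1; inactive means the rest.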 This is one part of the list.
# Assay: Novel Modifiers of Survival Motor Neuron (SMN) Protein: Gene Identification via Genome-wide siRNA Screen;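 further: luminescence tracks full-length SMN protein made from the SMN2 reporter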
# Conditions: HEK293T SMN2-luciferase reporter, siRNA knockdown, 72 h; actives lie on both sides
# Procedure, shortened: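 siRNA screen, 10418 genes ×3 siRNAs; 1 pmol/well, lipid reverse transfection into HEK293T SMN2-luc reporter line. 72 h, 37 °C, 5% CO2; ONE-Glo readout. Data: neg-ctrl normalized, log10, MAD; hit = MAD >1.0 or < -1.0.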
row,Sequence,median seed-adjusted z-score
1,AGACCGUCAUGCACAAGGATT against PIP5K1C,inactive: -0.13
2,AGGCUGCAGUGGACAGUUUTT against ZBTB16,inactive: 0.431
3,GGAAGUUCUUCUAUGUGAATT against ZNF25,inactive: -0.145
4,CCAGGUUGAUAACACUGAUTT against LAP3,inactive: 0.0175
5,GGAACUCUAUGGGAACAAUTT against BCL2L1,inactive: 0.0801
6,GAAAUACUGCGGUAUAAAATT against SYTL2,inactive: 0.211
7,GCUAGUCAAGGUUCCUAAATT against GTF2F2,active: -1.14
8,CCCAGAAUGUGCUAAGGUUTT against USP4,inactive: -0.0365
9,GUCUAACUGGAAAACCCAATT against CASP3,inactive: -0.874
10,CAAGAGCACCGGUAAGGAATT against HSPA2,inactive: -0.0343
11,CAAAACUUCUGUGAAAACUTT against ZNF322A,inactive: 0.0884
12,GGAAUUACUCAUAUGCUAATT against TLR7,inactive: 0.189
13,GGAUUUCUACCUUUCCAUATT against CRTAP,inactive: 0.581
14,UGCUUGGCGACUUCAGUAATT against AKR1C2,inactive: -0.109
15,GUACAUCGGAGAUUGACAATT against CRTAM,inactive: 0.346
16,GUUCCGUAGUAAGAUGGAATT against GCAT,inactive: 0.672
17,GGAGUUCCAAUGGAAGUUATT against PSMD14,inactive: 0.375
18,GGAGCUAGACGAGAAUGGATT against S100A1,inactive: 0
19,ACCGCUCACUGCUUAGAAATT against NHLH1,inactive: -0.0084
20,CCUGACUUGCUUUGACCAATT against RGS8,inactive: 0.739
21,GCAUGAACGGAAUAUCUCUTT against ULK3,inactive: -0.73
22,GAACUCCAGUGGGCAAAUUTT against CDC25C,inactive: 0.256
23,ACCUGACAAGAGACAUAUATT against RAB39B,inactive: 0.485
24,GCUUGAAGAGUUUGGCUGGTT against DUSP15,inactive: 0
25,GCACGAUAUAUAUAGCUAUTT against RIPK2,inactive: 0.176
26,GGGCAUCGAACAUCACAAUTT against PLXNC1,inactive: -0.0792
27,GGAUCAGUUCUACAGUGAATT against UGT2B4,inactive: 0.0707

row,Sequence,median seed-adjusted z-score
1,GCUUGUCAGGUAGAUAUAATT against PCGF6,inactive: 0.536
2,GAACAACCGAUCAAGACCATT against FAM47B,inactive: -0.0631
3,GGUCACGGAUUGCUUUUUATT against DUS1L,inactive: 0.0698
4,GGAGCAACUUGGUAGUAUATT against MYO3A,inactive: 0.0776
5,CCACUGAGGAGAUAAGCAATT against ATAD3B,inactive: -0.624
6,GCUUUACCUUGGACCUGAATT against MPL,inactive: -0.0153
7,GGUGUGAACUACUUCAGCATT against MSN,inactive: -0.736
8,GGAAGAACUUUCUCGGUAATT against TIMP2,inactive: 0.0444
9,AAUCAUCGCUACAAGCUGATT against NKX2-8,inactive: 0.104
10,GGAGGACAUUUGUAUCCUUTT against NNT,inactive: 0.336
11,ACAAGGUGAUCAAACCUAATT against GFRA2,inactive: 0.363
12,CUACUGCUGGAGAAUCAAATT against GPR45,inactive: 0.0287
13,CAAUUUCAGCAGGCCCAAATT against RNF148,inactive: 0.552
14,CUAUCUCCCUGAUCCAGCATT against TRPM2,inactive: 0.226
15,GACUUGGAGUUUCAGGCAATT against XPC,inactive: -0.564
16,CGGAAGGACAGACAAGUAATT against SIGLEC9,inactive: 0
17,GGAAGUAUUUGUCUCGAUATT against UBE2D1,inactive: 0.508
18,ACAACGAAGUUCUACAGAATT against PKIA,inactive: 0.533
19,ACUCCAUGAUCAACCCUAUTT against GPR3,inactive: 0
20,CUACAUCCACAUCAAGAUATT against DNAJA3,inactive: -0.0333
21,CCCAAAGAGUGAACAGGUATT against ZNF232,inactive: 0.39
22,CCAAGAUCCUCUUCAAAGATT against PLCH2,inactive: 0.593
23,GACUCAACCUAGACGUGCATT against INHBB,inactive: -0.522
24,GCAUCUGCUGUAUCGAUGATT against MCM4,inactive: 0.0057
25,GCUUUAUGACAGAACCGAATT against OPA1,inactive: -0.182
26,UAACCGAUUUGAUAUGAAUTT against ANKRA2,active: 1.26
27,CCGACUCAGUAACCCUGAATT against UTP6,inactive: -0.253

# As entered above.
# Entry of CCGACUCAGUAACCCUGAATT against UTP6 under median seed-adjusted z-score: inactive: -0.253
# Entry of GGUGUGAACUACUUCAGCATT against MSN under median seed-adjusted z-score: inactive: -0.736
